This is an account of results in publication PMC7819943, “Rice protein-binding microarrays: a tool to detect cis-acting elements near promoter regions in rice”.

The other results are listed elsewhere or left out.

The test concerns the target T1, OsSMF1 (Oryza sativa, UniProt Q6ZLB0 1-436).
T1 sequence: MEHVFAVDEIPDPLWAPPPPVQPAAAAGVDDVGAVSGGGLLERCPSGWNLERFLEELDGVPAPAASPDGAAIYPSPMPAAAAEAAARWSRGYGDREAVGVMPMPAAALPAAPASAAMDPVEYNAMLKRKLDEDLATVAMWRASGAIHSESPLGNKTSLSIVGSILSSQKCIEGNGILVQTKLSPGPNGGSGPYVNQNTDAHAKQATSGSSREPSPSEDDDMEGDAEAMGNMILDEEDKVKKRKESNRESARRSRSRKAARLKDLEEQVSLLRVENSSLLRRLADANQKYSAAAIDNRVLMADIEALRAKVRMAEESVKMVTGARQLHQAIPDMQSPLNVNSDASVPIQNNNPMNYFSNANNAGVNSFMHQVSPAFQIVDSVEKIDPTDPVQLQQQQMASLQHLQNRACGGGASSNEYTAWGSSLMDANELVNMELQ
Description: protein-binding microarray (RPBM); PBS, 2% BSA, 51.3 ng/ul salmon testes DNA, 50 uM zinc acetate, 200 nM TF, 25 C, 1 h; high values mean tight binding. Conditions: protein: recombinant; tags: N-terminal polyhistidine and DsRed monomer fusion (pET32a); chain copies: 2; label: CyDye5-dUTP incorporated in the synthesized complementary strand; 3' TTTTT single-stranded linker to array surface; dsDNA, one strand shown. The method, boiled down: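 Using Ni–NTA, transcription factors fused N-terminally to polyhistidine and DsRed were purified after expression in E. coli BL21-CodonPlus. These were incubated at 200 nM with a blocked, double-stranded custom Agilent array for 1 h at 25 °C in a buffer containing 50 µM zinc acetate, and the array was washed. The binding signal is per-feature fluorescence intensity (arbitrary units) on an Axon 4000B scanner.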
Consider “CCGGATATTATCCTGAGATCTATATATGCTAGATTGATTTCGGAGTCACCTAGTGCAG”, for which the binding signal is 10500 fluorescence intensity (a.u.).
Then “TCTCTCTCTTCAGTGCCATCACCATCTCTCTCTCTCTCTCCGGAGTCACCTAGTGCAG”, with 3520 fluorescence intensity (a.u.); and “ATCGACTGCTGCGTGTCACGTACGCACGAAACTTGTTGATCGGAGTCACCTAGTGCAG”, with 3950 fluorescence intensity (a.u.); and “CGGGTTCTTCATGTGCTGACTTCATTCCATAATTCATGTTCGGAGTCACCTAGTGCAG”, with 3580 fluorescence intensity (a.u.).
Under “CGGCTGAATGTGGGCTTGGCATGCACTGCAGCGGTTGTTGCGGAGTCACCTAGTGCAG” stands 3610 fluorescence intensity (a.u.).
In the case of “AACGGACAACATACTTCCTGATCTACTCCACCTGGCATTCCGGAGTCACCTAGTGCAG”, the binding signal is 3700 fluorescence intensity (a.u.).
Under “TGTTTAGTACTGTAGCAGATTTACTGTAACGTCTCATCTGCGGAGTCACCTAGTGCAG” stands 3170 fluorescence intensity (a.u.).
Then “GGTGAATTTTACTCATTGATACTCCAGCTAGCTAACGAATCGGAGTCACCTAGTGCAG”, with 3330 fluorescence intensity (a.u.); and “CCGATCGACATCAATATGGATGCATGCATACATGTCATAGCGGAGTCACCTAGTGCAG”, with 4330 fluorescence intensity (a.u.).
Under “GTGCAGTCAGGTGCACTCGGTTCACGGATATTGCCTCGCTCGGAGTCACCTAGTGCAG” stands 7880 fluorescence intensity (a.u.); under “CTATGTCAACGTGTCATGTAGGGCTTGTTTGGTTTGGTGCCGGAGTCACCTAGTGCAG”, 9160 fluorescence intensity (a.u.); under “ATGTTACTGATACTGAGAAGTGACGTTGGGTTATACATTGCGGAGTCACCTAGTGCAG”, 3440 fluorescence intensity (a.u.).
“ATGTCCAAAGTTCCCAACACAGCAATGACTTTTATACAACCGGAGTCACCTAGTGCAG”: the binding signal is 3650 fluorescence intensity (a.u.).
Then “ATTTCAATGCAGTGCAGCGTGGAGATGCTGAAATGGCACACGGAGTCACCTAGTGCAG”, with 3380 fluorescence intensity (a.u.); and “GGCGGTGTCCGCCGTGGCCGTGATGCTCGACTCGGGCGAGCGGAGTCACCTAGTGCAG”, with 3420 fluorescence intensity (a.u.); and “GGAAGTGCTTGTGGTCGGAAAGCTTCTAGATGACGAGGATCGGAGTCACCTAGTGCAG”, with 3590 fluorescence intensity (a.u.).
In the case of “TTGCCGTATCGGCTCGCCTGAAAGCGTGTCATTAGCATGACGGAGTCACCTAGTGCAG”, the binding signal is 3950 fluorescence intensity (a.u.).
Then “GATAATAATGTCAAATGTCATGATCCAGCGCAGCACGAGCCGGAGTCACCTAGTGCAG”, with 3290 fluorescence intensity (a.u.); and “CTCCAGGAGGGGTGGAGTTGGAGCTGGAGCTGTGACAAACCGGAGTCACCTAGTGCAG”, with 12800 fluorescence intensity (a.u.); and “GCCTGCATTATGCATACACGTCATTCACGTATGCATGGGCCGGAGTCACCTAGTGCAG”, with 23800 fluorescence intensity (a.u.).
Then “AGCACCACATGGAATGAAGACCGGGTCAGCACCGCTACGTCGGAGTCACCTAGTGCAG”, with 3230 fluorescence intensity (a.u.); and “AATGTGCTCATCAGCGCCTGACACGAAGATGTGGATCATCCGGAGTCACCTAGTGCAG”, with 3680 fluorescence intensity (a.u.).
Then “TTTCTGAAGGAGCACGGGAGTGCAATTAAGTTTGTCAGCACGGAGTCACCTAGTGCAG”, with 4090 fluorescence intensity (a.u.); and “CTTTCAAGAGTAATTAAGAGAGGGCGATGATGTGTACATACGGAGTCACCTAGTGCAG”, with 4690 fluorescence intensity (a.u.).
On to “AACTGTTTGTTTGGTGCTTTGACAAGTAACGGCATAGTTTCGGAGTCACCTAGTGCAG”, for which the binding signal is 3330 fluorescence intensity (a.u.).
Then “TATTTAAGTGGGGCCCACATGCCGTATCATATCCATGACCCGGAGTCACCTAGTGCAG”, with 4080 fluorescence intensity (a.u.).
Under “AAAGATCAGAGAGACTACTAATCCGGTTTATTTACTGGCACGGAGTCACCTAGTGCAG” stands 44100 fluorescence intensity (a.u.); under “GAGTAGCTCACTCCGGATCGGGTGTTAGGGATGGCCATCACGGAGTCACCTAGTGCAG”, 3390 fluorescence intensity (a.u.); under “ACCAAACGATGCCACGCCGGTCAGATGTCGCCATCTCCCACGGAGTCACCTAGTGCAG”, 4480 fluorescence intensity (a.u.).
Under “TTTTGGATGCAGCATATGGTTGTCCCGATGCAAAATCCTCCGGAGTCACCTAGTGCAG” stands 4530 fluorescence intensity (a.u.); under “AGTGTCCTTCTCAAAACTTAACTTCTGTGACGTCCTATAACGGAGTCACCTAGTGCAG”, 3540 fluorescence intensity (a.u.).
As for “CCGTGCCCGTGCTCGGAAGCCTCGTGTGGCTGACGCACTCCGGAGTCACCTAGTGCAG”, the binding signal is 4200 fluorescence intensity (a.u.).
Then “TCAAGTCCATGAAAGTATCAGCTTTTGGTTGTCAAATATACGGAGTCACCTAGTGCAG”, with 3150 fluorescence intensity (a.u.); and “TCTACGGGTATCCCGCGTCGACAATATTCCCATGCATTTACGGAGTCACCTAGTGCAG”, with 3490 fluorescence intensity (a.u.).
Under “CAGCGTTCGGTGGGAGGTGACGCTGACGCAGCGCAATCGCCGGAGTCACCTAGTGCAG” stands 7040 fluorescence intensity (a.u.); under “CTATTATATGAGAGAAAATATAATGATGCTAGCCGCGCAACGGAGTCACCTAGTGCAG”, 27200 fluorescence intensity (a.u.); under “GTCACGCGCAACATTCATTGCGAAGTCACGACTTGCGAGCCGGAGTCACCTAGTGCAG”, 4400 fluorescence intensity (a.u.).
Then “AACTTTTAATGATGTTCAACATGGGAAAATATGTGGTGGACGGAGTCACCTAGTGCAG”, with 8320 fluorescence intensity (a.u.); and “CCTATGTTAGGGTAACTATCATTGACCATGAAACTCATCTCGGAGTCACCTAGTGCAG”, with 3210 fluorescence intensity (a.u.); and “CTTGCGCGCGTGATTTGCCATTGCCACATGTCCGATTGGGCGGAGTCACCTAGTGCAG”, with 4520 fluorescence intensity (a.u.).
As to “CCGACGAAATCGACCACGCTGCATGAGGTCTCCACCTCACCGGAGTCACCTAGTGCAG”, the binding signal is 3150 fluorescence intensity (a.u.).
Under “TGTTTGTGAAATGATATATTACAAATTAACCTATCTTGTGCGGAGTCACCTAGTGCAG” stands 20400 fluorescence intensity (a.u.).
